The values below come from PubChem BioAssay AID1489 (National Center for Advancing Translational Sciences (NCATS), 2009).

Amino acid sequences for entries named in this document (tags omitted). A change or cut given only in a name is not applied to a line headed by its entry.
UniProt Q6W5P4: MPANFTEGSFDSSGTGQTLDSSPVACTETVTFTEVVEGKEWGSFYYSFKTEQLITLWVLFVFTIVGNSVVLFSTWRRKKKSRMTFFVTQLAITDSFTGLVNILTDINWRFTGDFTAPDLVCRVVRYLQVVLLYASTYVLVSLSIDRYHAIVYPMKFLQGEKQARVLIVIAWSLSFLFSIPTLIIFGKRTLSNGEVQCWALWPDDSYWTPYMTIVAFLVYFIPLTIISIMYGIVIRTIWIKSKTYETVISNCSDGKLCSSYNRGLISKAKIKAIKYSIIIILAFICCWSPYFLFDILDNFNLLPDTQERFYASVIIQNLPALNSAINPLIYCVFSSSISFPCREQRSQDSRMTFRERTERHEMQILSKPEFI

Each structure is given as a SMILES string. This list holds what a sample rich in hits left over. Inconclusive results are not listed. Activity calls are given as the source filed them. Calls follow the shape of the dose curve; as a rule, active = well fitted antagonist curve with a large enough effect in the main read-out, with a control signal flat; inconclusive = small, poorly fitted or top-dose-only effect; inactive = no such curve, though single readings can be large or run the other way.

The target of this experiment is Neuropeptide S receptor (Homo sapiens) (UniProt Q6W5P4). Nature of the experiment: Confirmation Concentration-Response Assay for Antagonists of the Neuropeptide S Receptor: Calcium Signal Transduction. The conditions noted are these: CHO-NPSR cells, NPS-induced calcium flux, FDSS; at 19.3 µM (top of the series). The source says:
NIH Chemical Genomics Center [NCGC] NIH Molecular Libraries Probe Production centers Network [MLPCN] MLPCN Grant: X01-DA026210-01 Assay Submitter (PI): Heilig, Markus Alexander NCGC Assay Overview: Neuropeptide S receptor (NPSR), previously known as GPR154, is a recently de-orphanized G protein coupled receptor. Its endogenous ligand is the 20 amino acids peptide Neuropeptide S (NPS). […] NPS and its receptor are found in various tissues. Specifically they are highly expressed in brain areas that have been implicated in modulation of arousal, stress and anxiety. […] This change in intracellular calcium can be detected using a calcium indicator dye on a calcium imaging plate reader system (FDSS).
NCGC Assay Protocol Summary: A Chinese hamster ovary (CHO) cell line stably expressing the NPS receptor (CHO-NPSR) was obtained from Dr. Heilig lab at NIAAA and maintained in F-12 Kaighn's media (Invitrogen, Carlsbad, CA, 21127) supplemented with 10 % FBS, 100 units/ml penicillin, 100 ug/ml streptomycin and 250 ug/ml geneticin at 37C, 5% CO2 in a humidified atmosphere. […] The assay was performed on a FDSS-7000 kinetic plate reader in 1536-well format. For both agonist (1-220s) and antagonist (221-400s) phases, the maximums of kinetic fluorescence responses were converted separately into text files using the instrument's software data export utility. […]
In general terms: Calcium flux is commonly read through the fluorescence of an indicator in the cells.

Take `CN(C)c1ccc2nc3ccc(=[N+](C)C)cc-3sc2c1`: the activity change, negative = inhibition was inactive: 7.9%.
